According to PubChem BioAssay AID1508600 (Functional Genomics Laboratory (NCATS/FGL), 2020):
Out of some 53,000 sequences screened, about 3,700 (7%) were called active.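 How the source made its calls: active means gene knockdowns whose robust z-score for IL-1 alpha signal is at least 2 or at most -2, so actives lie on both sides; inactive means the rest.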 Some of the results follow.

Assay: Components of the Cytosolic LPS Sensing Pathway: Gene Identification via Genome-wide siRNA Screen;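 further: robust z of the log signal after scaling to non-targeting control siRNA wells of the plate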
Conditions: RAW264.7 macrophages, IL-1a HTRF, actives lie on both sides, screened at 100 nM (by protocol), cells primed 5 h with Pam3CSK4 first
How it was run: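 RAW264.7; siRNA 100 nM final, RNAiMAX, 48h 37 degrees C; Pam3CSK4 5 h; LipidA + TransIT-TKO 24 h; IL-1a HTRF; CellTiter-Glo viability; robust z vs negative-control median.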

z-score, inactive:
GGCAUUCAGAUGACAAUGGTT against C1galt1 -1.43
CCACUCUUACCAAGAAGAGTT against Mog 0.468
GGAUAUAUUGAAAUGCCCATT against Zbtb14 0.394
GCGAUUGACUUUUACCGGATT against Naa50 1.22
GGACAGAAUCACGGUUUCCTT against Gbp8 0.376
GGCAUCAUCGAUGUUUAUGTT against Acot4 -1.14
CCCGUUGCUUUAGAGCUCUTT against Dph2 0.912
GGUCUUCCUUUUGGUCUUCTT against Olfr1240 -0.908
GGUUCACAGAGGCUAAGGUTT against Dph1 0.494
GCCAUUUCUUACACCUAUATT against Olfr484 -1.09
GGAGCAAAUCUUCUGUGUATT against Cdc42ep1 0.889
GGAGAUUGAAGAGCUCCGATT against Cabp1 -0.0021
GCGCAGACUUACAAUUAUUTT against Bms1 1.06
GGUAUUCCCUAUGCUUCUCTT against Gpm6a 1.3
GCUUUAAAACAUAUGCCUGTT against Mip 0.304
CCUACAGUACCCAAAAUACTT against Tmem151a -1.05
GGCAUACAAAUAUUCUUGCTT against H2bu1-ps 0.366
GGCUAUGGAAACCACCACATT against Nrg3 -1.21
GGAAAGAUUGGAUUUGAAGTT against Zfp318 -0.925
GGACCAGAUUGUGAUUGAUTT against Iftap -0.145
CGUGAACAAUUACUGAGCCTT against Wars2 -0.863
CCCACCUGGCUUUUAUUGATT against Olfr1042 -1.24
GCCCUUCGUGAUGAAGAAUTT against B4galt3 0.829
GCUACUAAAAGUAAAUGUCTT against Ugt8a 0.847
CCAUAUGGAGUUCUCUAUATT against Rpf2 0.69
GGACAGUGAAGAGGAUUCCTT against Anapc15 -0.988
CCCAGAUCAGAUUAUUUGGTT against Aldh3b3 -0.641
GGUUAUUCAUUCAAAAUGGTT against Fastkd2 -0.457

2 records picked at random from those above:
z-score, inactive:
GGUUCACAGAGGCUAAGGUTT against Dph1 0.494
GCGAUUGACUUUUACCGGATT against Naa50 1.22

Next part:

z-score, active:
GGACCGCCUUCAACAACAATT against Tpgs1 2.68
GCAUCUCAAGACGAUGGAUTT against Akap8l 2.3
